# Measurements taken from PubChem BioAssay AID540256 (National Center for Advancing Translational Sciences (NCATS), 2011).
# In all, about 300,000 compounds went through this assay and about 3,700 (1.2%) were called active. Inconclusive results, whose numbers are uncertain, are shown with a selection of clear calls. Calls come from the whole dose curve; tested in HEK293 cells. A potency beside an inconclusive call is a rough fit, not a confirmed value.
# Test: qHTS for Inhibitors of binding or entry into cells for Lassa Virus; note: nearly all actives have a fitted effect of over 50% in size
# Conditions: Lassa virus pseudotype entry inhibition, cell reporter; series mostly up to 37.9 µM
# Potency is the fitted concentration of half-maximal effect.
row,SMILES,Potency
1,Cc1ccnc(SCC(=O)c2ccc(Br)s2)n1,"inconclusive: 22.4 µM [activator, single point]"
2,C/C(Cl)=C/CSc1nc2c(c(=O)[nH]c(=O)n2C)n1C(C)C,"inconclusive: 11.2 µM [inhibitor, partial curve, poor fit]"
3,CCCC(=O)c1ccc(N2CCCC2)c(F)c1,"inconclusive: 1 µM [activator, partial curve, poor fit]"
4,COc1ccccc1CNC(=O)Cn1nc(C)c2nn(-c3ccc(Cl)cc3)c(C)c2c1=O,"inconclusive: 15.8 µM [inhibitor, single point]"
5,Cc1ccccc1Nc1nc(N)nc(COC(=O)CC2CC3CCC2C3)n1 (configuration not stated),"inconclusive: 35.5 µM [inhibitor, single point]"
6,Cc1[nH]c2ccccc2c1CCNC(=O)c1ccc2c(c1[N+](=O)[O-])C(=O)c1ccccc1C2=O,"inconclusive: 35.5 µM [inhibitor, single point]"
7,CCc1ccc(NC(=O)CSc2nnc(-c3cc4occc4n3C)n2-c2ccccc2C)cc1,"inconclusive: 20 µM [inhibitor, single point]"
8,Clc1ccccc1Cc1cn2cc(-c3ccccc3)nc2s1,"inconclusive: 0.562 µM [activator, partial curve, poor fit]"
9,O=C(NCC(=O)N1CCN(Cc2ccccc2)CC1)c1ccc(Br)o1,inactive
10,COc1ccc(CCC(=O)NCc2ccc3c(c2)CCN3C(=O)c2ccc(C)cc2)cc1,inactive
11,Cc1ccc(S(=O)(=O)N(C)C)cc1NC(=S)NC1CCCC(C)C1C (configuration not stated),"inconclusive: 7.31 µM [inhibitor, partial curve, poor fit]"
12,COCCNC(=O)CSc1nc(-c2ccc(C)cc2)nc2c1c(=O)n(C)c(=O)n2C,inactive
13,COc1ccccc1NC(=O)Nc1cccc(NC(C)=O)c1,inactive
14,CC(=O)c1ccc(N2CCN(C(=O)c3cc(-c4cccnc4)nc4ccc(Br)cc34)CC2)cc1,"inconclusive: 20 µM [inhibitor, partial curve, poor fit]"
15,Cc1ccc(-n2nc(C)c3c(C(=O)Nc4ccc(Br)c(C)c4)cc(C)nc32)cc1,inactive
16,Cc1cc(-n2cnnn2)ccc1C(C)C,inactive
17,COCC1CCCN(C(=O)c2cc(COc3ccc4ncccc4c3)on2)C1 (configuration not stated),"inconclusive: 14.1 µM [inhibitor, partial curve, poor fit]"
18,CCc1ccc(NC2=CC(=O)CC(C)(C)C2)cc1,inactive
19,COc1ccc2oc(C(=O)OC(C)C(=O)N3CCC(C)CC3)c(C)c2c1 (configuration not stated),"inconclusive: 20 µM [inhibitor, single point]"
20,CC(Sc1nc(-c2ccccc2)nc2c1COC(C)(C)C2)C(=O)N1CCOCC1 (configuration not stated),inactive
21,Cc1ccc(-c2nc3cccnc3s2)cc1NC(=O)Cc1ccccc1,"inconclusive: 14.1 µM [inhibitor, single point]"

# Taken from above.
# `CC(=O)c1ccc(N2CCN(C(=O)c3cc(-c4cccnc4)nc4ccc(Br)cc34)CC2)cc1` – Potency: inconclusive: 20 µM [inhibitor, partial curve, poor fit]
# `COc1ccccc1NC(=O)Nc1cccc(NC(C)=O)c1` – Potency: inactive

# (list continues)

row,SMILES,Potency
1,CCOc1ccc(S(=O)(=O)N2CCCCC2)cc1NC(=O)Cc1cccs1,"inconclusive: 35.5 µM [inhibitor, single point]"
2,O=C(CNC(=O)c1ccco1)OCc1ccccc1F,"inconclusive: 25.1 µM [activator, partial curve, poor fit]"
3,CCN(CC(=O)Nc1ccccc1C(F)(F)F)C(=O)c1ccc(=O)n(Cc2ccccc2)n1,inactive
4,COC(=O)C1=C(N)Oc2cc(C)n(CCCn3ccnc3)c(=O)c2C1c1ccc(Cl)cc1 (configuration not stated),inactive
5,COc1ccc(OCC(O)Cn2c(Nc3cccc(C)c3)nc3c2c(=O)n(C)c(=O)n3C)cc1 (configuration not stated),"inconclusive: 14.1 µM [inhibitor, partial curve, poor fit]"
6,CCCCC/C=C\C/C=C\C/C=C\CCCCC(=O)O,"inconclusive: 28.1 µM [activator, single point]"
7,Cc1ccc(Cn2nc(C)c(NC(=O)c3cc(-c4ccco4)on3)c2C)cc1,"inconclusive: 2.06 µM [activator, partial curve, poor fit]"
8,O=C(CSc1ccc(-c2cccnc2)nn1)Nc1ccc(Br)cc1,"inconclusive: 17.8 µM [inhibitor, partial curve, poor fit]"
9,CC(C)c1ccc2oc(=O)cc(CN3CCN(c4ccccc4)CC3)c2c1,"inconclusive: 22.4 µM [inhibitor, single point]"
10,CC(C)(C)c1ccc(C(=O)Nc2ncn[nH]2)cc1,"inconclusive: 12.6 µM [inhibitor, single point]"
11,CCCCCn1c(=N)n(CC(O)COc2ccccc2OC)c2ccccc21 (configuration not stated),"inconclusive: 16.4 µM [inhibitor, single point]"
12,Cc1cc(NCc2ccco2)nc(N2CCC(C(=O)NC3CCCCC3)CC2)n1,"inconclusive: 14.1 µM [inhibitor, partial curve, poor fit]"
13,CC1CCCC(NC(=S)Nc2ccc(SC(F)F)cc2)C1C (configuration not stated),"inconclusive: 0.501 µM [inhibitor, full curve, poor fit]"
14,Cc1ccc(NC(=O)Cn2c(-c3nonc3N)nc3ccccc32)cc1Cl,"inconclusive: 6.31 µM [inhibitor, single point]"
15,Clc1ccc(CN2CCC(c3nc4ccc(Cl)cc4[nH]3)CC2)cc1,"inconclusive: 35.5 µM [inhibitor, single point]"
16,CCOc1ccc(CNC(=O)C2Cc3cc(S(=O)(=O)N4CCCCCC4)ccc3N2C(C)=O)cc1 (configuration not stated),inactive
17,COc1cc2c(cc1NC(=O)c1cccc([N+](=O)[O-])c1)oc1ccccc12,"inconclusive: 11.2 µM [inhibitor, partial curve, poor fit]"
18,COc1cc(C2C(C#N)=C(N)Oc3cc(O)ccc32)cc(OC)c1OC (configuration not stated),"inconclusive: 0.73 µM [inhibitor, full curve, poor fit]"
19,O=C(CC(=O)NC1CCCCC1)N/N=C/c1ccc(Cl)cc1,"inconclusive: 5.62 µM [inhibitor, single point]"
20,O=C(NC1CCCCC1)c1ccc(S(=O)(=O)N2CCCCC2)cc1,active: 2.06 µM
21,N#C/C(=C\c1cccc([N+](=O)[O-])c1)C(=O)NCc1cccnc1,"inconclusive: 14.1 µM [activator, partial curve, poor fit]"
